The supplement of paper PMC11348887
Where a name gives a salt, the structure may show the parent alone. The list shows a part of the results. Most values lie at the level of the controls, where differences are scatter.

System: hPSC-derived cortical neurons (WA09)
Test: total neurite length per nucleus (MAP2) z-score; higher = more neurite growth
Conditions: 5 µM; treatment: days 7-14 after plating, readout day 21

Row | SMILES | total neurite length per nucleus (z-score)
1 | O=C(c1ccc(/C=C/c2n[nH]c3ccccc23)cc1)N1CCNCC1 | 2.16
2 | COc1cc(C=O)ccc1O [Vanillin] | -1.06
3 | CCn1cc(C(=O)O)c(=O)c2cc(F)c(N3CCNC(C)C3)c(F)c21 (stereo not drawn) [Lomefloxacin HCl] | 0.307
4 | Nc1ccc(S(=O)(=O)Nc2ncccn2)cc1 [Sodium sulfadiazine] | 0.804
5 | CCCN[C@H]1CCc2nc(N)sc2C1 [Pramipexole 2HCl Monohydrate] | -0.173
6 | N=C(N)NC(=N)NCCc1ccccc1 [Phenformin HCl] | 2.02
7 | CC1(C)O[C@@H]2C[C@H]3[C@@H]4C[C@H](F)C5=CC(=O)C=C[C@]5(C)[C@@]4(F)[C@@H](O)C[C@]3(C)[C@]2(C(=O)CO)O1 [Fluocinolone Acetonide] | 0.903
8 | Cc1ccc(S(=O)(=O)n2c(N)nc3ccccc32)cc1 [ML130 (Nodinitib-1)] | 0.411
9 | Oc1ccc([C@H]2COc3cc(O)ccc3C2)cc1 [Equol] | 0.31
10 | CO[C@@H]1[C@@H](OC(N)=O)[C@@H](O)[C@H](Oc2ccc3c(O)c(NC(=O)c4ccc(O)c(CC=C(C)C)c4)c(=O)oc3c2C)OC1(C)C [Novobiocin Sodium] | 0.137
11 | Cc1c(O)cccc1C(=O)N[C@@H](CSc1ccccc1)[C@H](O)CN1C[C@H]2CCCC[C@H]2C[C@H]1C(=O)NC(C)(C)C [Nelfinavir Mesylate] | -1.53
12 | COc1cc(C(=O)NS(=O)(=O)c2ccccc2C)ccc1Cc1cn(C)c2ccc(NC(=O)OC3CCCC3)cc12 [Zafirlukast] | -0.198
13 | C[C@@H](O)[C@H]1C(=O)N2C(C(=O)O)=C(S[C@@H]3CN[C@H](CNS(N)(=O)=O)C3)[C@H](C)[C@H]12 [Doripenem Hydrate] | 0.838
